This is an account of results in paper PMC10987620.

The assay concerns the target FLAG-labeled IGF2BP3 KH1–2 domain fragment. Put plainly: co-IP; FLAG-tagged full-length or fragment IGF2BP3 plasmids transfected into HEK293T; IP with FLAG antibody, immunoblot with MKRN2 antibody; RIPA lysis with protease and ribonuclease inhibitor; Protein A/G magnetic beads overnight at 4 °C; washes with NT2 buffer (50 mM Tris-HCl pH 7.4, 150 mM NaCl, 0.05% Nonidet P-40, 1 mM MgCl2).

No constants are given. Whether binding was seen depends on the method and setting. Binding seen in cells or lysates may run through a third protein. Binding calls can cover weak binding; strength is not graded here.

B1: MKRN2 in HEK293T lysate (detected with MKRN2 antibody) (protein, UniProt Q9H000 1-416)
chain: MSTKQITCRYFMHGVCREGSQCLFSHDLANSKPSTICKYYQKGYCAYGTRCRYDHTRPSAAAGGAVGTMAHSVPSPAFHSPHPPSEVTASIVKTNSHEPGKREKRTLVLRDRNLSGMAERKTQPSMVSNPGSCSDPQPSPEMKPHSYLDAIRSGLDDVEASSSYSNEQQLCPYAAAGECRFGDACVYLHGEVCEICRLQVLHPFDPEQRKAHEKICMLTFEHEMEKAFAFQASQDKVCSICMEVILEKASASERRFGILSNCNHTYCLSCIRQWRCAKQFENPIIKSCPECRVISEFVIPSVYWVEDQNKKNELIEAFKQGMGKKACKYFEQGKGTCPFGSKCLYRHAYPDGRLAEPEKPRKQLSSQGTVRFFNSVRLWDFIENRESRHVPNNEDVDMTELGDLFMHLSGVESSEP
Consider B1, for which the binding entry is given as “binds”.
